Source: patent publication US8709303B2, “Dielectric insulation medium” (ABB Research Ltd., priority 2010, dated 2014)
Some of these results come from one statement about several compounds together. At least one compound was matched to its structure with a doubt left.

Experiment: lethal concentration LC 50, concluded from data on commercial hydrofluoro ethers
Assay type: in vivo
Conditions: concluded from data for commercial hydrofluoro ethers of higher molecular weight

Row | Structure (SMILES) | lethal concentration LC 50
1 | FC(F)(F)COC(F)(F)F [2,2,2-trifluoroethyl-trifluoromethyl ether (CF3—O—CH2CF3)] | higher than 10,000 ppm
2 | COC(F)(F)C(F)(F)F [pentafluoro-ethyl-methyl ether, pentafluoro-ethyl-methyl ether (CH3—O—CF2CF3)] | higher than 10,000 ppm
